Test results reported in US8519183B2, “Uses for amino acid anticonvulsants” (Research Corporation Technologies, Inc., priority 2000, dated 2013).
At least one structure is not confirmed: it was looked up by name or label, or the drawing left a doubt.

Molecular target: NMDA receptor (Mus musculus, UniProt P35438)
Test: NMDA receptor agonism/antagonism after ICVT administration
Conditions: ICVT 0.2 μg/mouse, N 3

O=C(O)[C@@H]1C[C@H](CP(=O)(O)O)CCN1 [Cis-4-Phosphono-methyl-2-piperidine-carboxylic acid, reference compound]
Agonism (mice with convulsions/mortality within 5 minutes): 0 | Antagonism (mice protected from NMDA 60 mg/kg IV induced tonic convulsions/mortality): 3
